Test results published in PubChem BioAssay AID1347076 (National Center for Advancing Translational Sciences (NCATS), 2019).
The whole screen tested about 400,000 compounds, of which about 13,000 (3.2%) were called active. Inconclusive results, whose numbers are uncertain, are shown with a selection of clear calls. The call rests on the fitted dose curve; in most records, active means well fitted cell-killing curve with a large enough effect; inconclusive means small, poorly fitted or top-dose-only effect, or effect the other way; inactive means flat fitted curve, though single readings scatter. Potencies beside an inconclusive call are fits to weak or partial responses and may not hold up.

Experiment: qHTS assay for MDR1-selective chemotherapeutics: Primary screen using the drug-selected MDR subline cells KB-V1; further: nearly all actives have a fitted effect of over 60% in size
Details: KB-V1 MDR cells viability, CellTiter-Glo, 72 h; series mostly up to 46.1 µM
Procedure, shortened: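 Readout: CellTiter-Glo luminescence, 10 min after addition. Cells: KB-V1 MDR subline, 72 h at 37 degrees C with compound. Analysis: corrected, normalized data fitted to concentration-effect curves.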
Potency means the concentration at half of the fitted maximal effect.

| Compound | Potency |
| --- | --- |
| O=C(Nc1ccccc1C(=O)O)c1cccc(NC(=O)c2ccco2)c1 | inconclusive: 29.1 µM [rising, single point] |
| CCOc1cc(/C=N/N=C(/N)c2nonc2N)cc(Br)c1OCc1ccc(Cl)cc1 | inconclusive: 20.6 µM [cytotoxic, single point] |
| COc1ccccc1Cc1c(C2CCCCC2)nc2ccc(Cl)cn12 | inactive |
| Cc1ccc(C(=O)Nc2ccc3c(c2)OCO3)o1 | inconclusive: 29.1 µM [cytotoxic, single point] |
| CN1OC[C@@H]2CN(Cc3cc(Cl)cc(Cl)c3)[C@H](c3cccc(Oc4ccccc4)c3)C[C@@H]21 | inactive |
| CCC(=O)N1CCN(c2cc(N3CCCC3)c(F)cc2[N+](=O)[O-])CC1 | inconclusive: 5.17 µM [cytotoxic, full curve] |
| Cc1cccc(N2C(=N)SCC2=O)c1C | inconclusive: 1.03 µM [cytotoxic, full curve] |
| C=CCNc1nc2c(c(=O)n(C)c(=O)n2C)n1Cc1ccc(F)cc1 | inconclusive: 14.6 µM [cytotoxic, partial curve] |
| CCc1ccc(NC(=O)CSc2nnc(CNC(=O)c3cccs3)o2)cc1 | inconclusive: 29.1 µM [rising, single point] |
| COc1cccc(CNC(=O)c2cc3c(-c4ccccc4F)nn(C)c3s2)c1 | inconclusive: 3.66 µM [cytotoxic, partial curve, poor fit] |
| N#C/C(=C(/O)CSc1ncn[nH]1)c1nc2ccccc2[nH]1 | inactive |
| CC(C)CC(=O)NC(c1cccs1)c1ccc2cccnc2c1O (centres undefined) | inactive |
| CCN(CC)CCNC(=O)C(=O)NCC1OCCN1S(=O)(=O)c1cccs1 (centres undefined) | inconclusive: 32.6 µM [rising, single point] |
| COc1cc(OC)c(/C=C/c2ccc3ccccc3[n+]2C)c(OC)c1 | inactive |
| O=C1NC(=O)N2CCSC2(Cc2ccccc2)N1 (centres undefined) | inconclusive: 18.4 µM [cytotoxic, single point] |
| CC(C)n1nc(C(=O)Nc2nc3ccccc3[nH]2)c2ccccc2c1=O | inconclusive: 7.31 µM [cytotoxic, partial curve, poor fit] |
| Cc1ccc(NC(=S)N(Cc2ccco2)C(C)c2cccs2)cc1 (centres undefined) | inconclusive: 29.1 µM [rising, single point] |
| CCN(CC)C(=O)Oc1ccc(NC(C)=O)cc1 | inactive |
| O=C1c2ccccc2C(=O)N1CCCc1c[nH]c2ccccc12 | active: 20.6 µM |
| CN1CCN(c2ccc(NC(=O)c3ccc([N+](=O)[O-])o3)cc2Cl)CC1 | inconclusive: 29.1 µM [cytotoxic, single point] |
| COc1ccc(CCNC(=O)CCSc2nc(-c3ccco3)cc(C(F)(F)F)n2)cc1OC | inconclusive: 7.31 µM [cytotoxic, partial curve] |
| O=C1CCC(C(=O)N2CCCCO2)CN1CCc1ccccc1 (centres undefined) | inconclusive: 16.4 µM [rising, single point] |
| COc1ccc(S(=O)(=O)N2CCN(C(=O)COc3ccc(C)c(C)c3)CC2)cc1OC | inconclusive: 8.2 µM [cytotoxic, partial curve] |

| Compound | Potency |
| --- | --- |
| CC1CCCC(C)N1C(=O)c1ccccc1Nc1ccc(SC(F)F)cc1 (centres undefined) | inconclusive: 5.17 µM [cytotoxic, full curve, poor fit] |
| COc1ccc(CC(=O)Nc2c(C(=O)N3CCN(c4ccccc4)CC3)oc3ccccc23)cc1OC | inactive |
| CC(/C=N/NC(=O)CSc1nc(C)cc(C)n1)=C\c1ccccc1 | inconclusive: 29.1 µM [cytotoxic, single point] |
| CCOC(=O)c1c(C)[nH]c(C)c1S(=O)(=O)N(C)CC(=O)Nc1ccc(OC)cc1 | inactive |
| COc1ccc(C(C(=O)NCc2ccccc2)N(Cc2cccs2)C(=O)c2cnccn2)cc1 (centres undefined) | inconclusive: 23.1 µM [cytotoxic, single point] |
| CC1CC(C)CN(S(=O)(=O)c2ccc(C(=O)NN3CCOCC3)cc2)C1 (centres undefined) | inconclusive: 1.3 µM [rising, full curve, poor fit] |
| CCN(CC)S(=O)(=O)c1ccc(N2CC(C(=O)NCCc3ccc(Cl)cc3)CC2=O)cc1 (centres undefined) | inconclusive: 0.231 µM [rising, full curve] |
| CN(C(=O)COc1ccccc1C(=O)NCCc1ccccc1)c1ccccc1 | active: 5.17 µM |
| CNC(=O)/C(C#N)=C1/SC(Cc2ccc(F)cc2)C(=O)N1c1ccccc1 (centres undefined) | inconclusive: 29.1 µM [rising, single point] |
| CC(OC(=O)C1=COCCO1)C(=O)NC1CCCC(C)C1C (centres undefined) | inactive |
| Cc1ccc(C#N)c(SCc2nnc(-c3ccc(Cl)cc3)o2)n1 | active: 11.6 µM |
| CC1(C)C2C/C(=N\O)C(C)(/[N+]([O-])=C/c3cccc([N+](=O)[O-])c3)CC21 (centres undefined) | inconclusive: 29.1 µM [cytotoxic, single point] |
| COc1cc(C(CC(=O)Nc2ccc(C)c(F)c2)N2Cc3ccccc3C2=O)cc(OC)c1OC (centres undefined) | inactive |
| CC1CN(C(=O)/C=C/c2ccc([N+](=O)[O-])s2)CC(C)O1 (centres undefined) | active: 8.2 µM |
| O=C(c1ccccn1)N(c1ccccc1)C1(C(=O)NC2CCCCC2)CCCCC1 | inconclusive: 6.51 µM [cytotoxic, partial curve] |
| Cc1cc(C)cc(C(=O)Nc2cccc(NC(=O)c3ccco3)c2)c1 | inconclusive: 29.1 µM [cytotoxic, partial curve, poor fit] |
| COc1ccc(OC)c(CNC(=O)c2ccc(N3Cc4ccccc4Oc4ncccc43)s2)c1 | inactive |
| CCC[N+](C)(C)c1ccc(/C=C/c2ccnc3ccccc23)cc1 | inconclusive: 13 µM [cytotoxic, partial curve, poor fit] |
| Cc1cc(NC(=O)/C=C/c2ccc(Br)cc2)no1 | inconclusive: 2.59 µM [cytotoxic, full curve, poor fit] |
| O=C(CCCCn1ccc(=O)[nH]c1=O)Nc1ccc(O)c(C(=O)O)c1 | inactive |
| O=C1c2ccccc2C(=O)N1CCc1csc(-c2ccccc2)n1 | active: 16.4 µM |
| CCn1c(SCC(=O)Nc2ccc(C(=O)OC)cc2)nnc1-c1cccs1 | inconclusive: 32.6 µM [cytotoxic, partial curve, poor fit] |
| COc1cc(/C=C2\C(=O)N(CCC#N)N=C2C)ccc1OCC(=O)Nc1ccccc1 | inconclusive: 29.1 µM [cytotoxic, single point] |

| Compound | Potency |
| --- | --- |
| COc1ccccc1OCc1ccc(C(=O)Nc2ccncc2)o1 | inconclusive: 11.6 µM [cytotoxic, partial curve] |
| COc1cccc(-c2nnc(SCc3ccc(C#N)cc3)n2Cc2ccco2)c1 | inconclusive: 8.2 µM [cytotoxic, partial curve] |
| Cc1c(C(=O)NCc2cccc([N+](=O)[O-])c2)sc(=O)n1Cc1ccccc1F | inconclusive: 16.4 µM [cytotoxic, partial curve] |
| Cc1cc(OCC(=O)Nc2ccc(N3CCN(C(=O)c4ccco4)CC3)cc2)cc(C)c1Cl | inconclusive: 5.17 µM [cytotoxic, partial curve, poor fit] |
| NC(=O)c1nsc(C(=O)N(CC(=O)NCc2ccccc2)c2ccc(F)cc2)c1N | inactive |
| CCOc1ccc(-c2nc(N)ncc2-c2ccc(Cl)cc2)c(O)c1 | inactive |
| COc1ccc(-c2c(C#N)c(SCC(=O)c3cc4ccccc4oc3=O)nc(C)c2C(=O)Nc2ccccc2)cc1 | inconclusive: 9.2 µM [cytotoxic, partial curve, poor fit] |
| CCN(C(=O)CN1C(=O)NC2(CCc3ccccc32)C1=O)C1CCS(=O)(=O)C1 (centres undefined) | inconclusive: 29.1 µM [rising, single point] |
| Nc1nc(OCC2CCCCC2)c2[nH]cnc2n1 | inconclusive: 29.1 µM [cytotoxic, single point] |
| CCC(C)(C)n1nnnc1CN1CCC(NC(=O)c2ccccc2C)CC1 | inactive |
| COc1ccc(C(=O)CN2CCN(c3cc(C)nc4ccccc34)CC2)cc1 | inactive |
| COc1ccc(Br)cc1/C=C/C(=O)Nc1c(C)cccc1C | inconclusive: 3.26 µM [cytotoxic, partial curve, poor fit] |
| Cc1ccc(Cl)cc1-c1ccc(C=Nc2ccc(N3CCOCC3)cc2)o1 | inactive |
| COc1ccc(C(C(=O)NCc2ccccc2)n2c(-c3ccncc3)nc3ccccc32)cc1 (centres undefined) | inconclusive: 7.31 µM [cytotoxic, partial curve] |
| CCOC(=O)C1(CCc2ccccc2)CCN(C(=O)c2occc2C)CC1 | inconclusive: 18.4 µM [cytotoxic, partial curve] |
| O=C(c1ccccn1)N(Cc1ccco1)C1(C(=O)Nc2ccc(Br)cc2)CCCCC1 | inactive |
| O=C(/C=C/c1ccco1)NC(=S)Nc1ccc(C(=O)O)cc1 | inactive |
| Cc1cc(=O)[nH]c(N/N=C/c2c(C)nn(-c3ccccc3Cl)c2Cl)n1 | inconclusive: 20.6 µM [cytotoxic, single point] |
| CCC(C)(C)n1nnnc1C(C(C)C)N(CCCO)Cc1cc2cc(C)ccc2[nH]c1=O (centres undefined) | inconclusive: 23.1 µM [cytotoxic, single point] |
| COc1ccc2[nH]c(C(=O)N(Cc3ccccn3)Cc3ccccn3)cc2c1 | inconclusive: 11.6 µM [cytotoxic, partial curve, poor fit] |
| CN(C)CCNC(=O)c1cccc(-c2cnc3c(NC=O)cc(-c4ccc(S(C)(=O)=O)cc4)cn23)c1 | inactive |
| CCNC(=S)NNC(=O)c1cc(-c2cccc(OCC)c2)nc2ccccc12 | inactive |
| CCN(CC)S(=O)(=O)c1ccc(F)c(C(=O)NCCCN2CCOCC2)c1 | inactive |

Some of these compounds in order of formula weight, rising:

| Compound | Potency |
| --- | --- |
| CCOc1ccc(-c2nc(N)ncc2-c2ccc(Cl)cc2)c(O)c1 | inactive |
| COc1ccc(Br)cc1/C=C/C(=O)Nc1c(C)cccc1C | inconclusive: 3.26 µM [cytotoxic, partial curve, poor fit] |
| COc1ccc2[nH]c(C(=O)N(Cc3ccccn3)Cc3ccccn3)cc2c1 | inconclusive: 11.6 µM [cytotoxic, partial curve, poor fit] |
| COc1cccc(-c2nnc(SCc3ccc(C#N)cc3)n2Cc2ccco2)c1 | inconclusive: 8.2 µM [cytotoxic, partial curve] |
| CCN(C(=O)CN1C(=O)NC2(CCc3ccccc32)C1=O)C1CCS(=O)(=O)C1 (centres undefined) | inconclusive: 29.1 µM [rising, single point] |
